{
  "source": "patent US8987233B2",
  "about": "“Bruton's tyrosine kinase activity probe and method of using” (Pharmacyclics, Inc., priority 2006, dated 2015)",
  "tested_on": "rheumatoid arthritis",
  "assay": "Mouse model of rheumatoid arthritis",
  "settings": "in vivo",
  "note": "At least one compound was matched to its structure with a doubt left.",
  "data": [
    {"molecule": "C=CC(=O)N1CCC[C@@H](n2nc(-c3ccc(Oc4ccccc4)cc3)c3c(N)ncnc32)C1", "note": "[Compound 2]", "values": [
      {"measurement": "Efficacy in mouse model of rheumatoid arthritis", "result": "efficacious"}
    ]}
  ]
}
